# Measured values reported in PubChem BioAssay AID504467 (National Center for Advancing Translational Sciences (NCATS), 2011).
# The whole screen tested about 330,000 compounds, of which about 7,700 (2.3%) were called active. The inconclusive results got no clear call from the source; some entries with a clear call stand among them for comparison. Calls come from the whole dose curve; as a rule, active = well fitted inhibition curve with a large enough effect; inconclusive = small, poorly fitted or top-dose-only effect, or effect the other way; inactive = flat fitted curve, though single readings scatter. Where the call is inconclusive, the potency comes from a doubtful curve fit.
# Test: qHTS screen for small molecules that inhibit ELG1-dependent DNA repair in human embryonic kidney (HEK293T) cells expressing luciferase-tagged ELG1; note: nearly all actives have a fitted effect of over 55% in size
# Conditions: HEK293T ELG1-luciferase reporter, luminescence, 16 h, DNA damage induced by 5-fluorouridine; activity change, negative = inhibition: at 46.1 µM (top of the series)
# Summary of the method: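 Luminescence from the luciferase reporter, measured 30 min after ONE-Glo reagent at room temperature, was the read-out. Beforehand, 2,000 cells per well were exposed for 16 hr at 37 °C to 5-fluorouridine together with compound or vehicle.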
# % is set by controls: 0 for no effect and ±100 for the full control effect; potency is the fitted concentration of half-maximal effect.
SMILES,Potency,"activity change, negative = inhibition"
NC(=O)COc1ccc(NC(=O)OCc2ccccc2)cc1,"inconclusive: 12.6 µM [activator, partial curve, poor fit]",
COc1ccc(C(=O)COc2ccc(F)cc2)c(O)c1,"inconclusive: 16.4 µM [activator, partial curve]",
On1cnnc1-c1ccccc1,"inconclusive: 5.17 µM [inhibitor, partial curve, poor fit]",
CCc1ccc(C2CC(c3ccccc3)Nc3nc(N)nn32)cc1 (stereo not given),,inactive: -8.42%
O=C1CCN(Cc2ccccc2)CCN1[C@H](CSc1ccccc1)c1ccccc1,,inactive: 26.6%
COCCCN=C1NN=C(c2cc(C)n(-c3ccccc3)c2C)CS1,"inconclusive: 1.16 µM [activator, full curve]",
Cc1csc(NC(=O)c2ccc3nc[nH]c3c2)n1,"inconclusive: 1.3 µM [activator, full curve]",
O=C(C[n+]1ccccc1)Nc1nc2ccccc2s1,"inconclusive: 10.3 µM [activator, partial curve]",
COC(=O)c1ccc(N2CC3CNC(=O)C2(C(=O)OC)N3C)cc1 (stereo not given),"inconclusive: 20.6 µM [activator, single point]",
O=c1c2c3c(sc2nc2n1CCCC2)CCCC3,"inconclusive: 20.6 µM [activator, partial curve]",
COc1ccc(OCC(O)Cn2cnc(-c3ccc(Br)cc3)c2)cc1 (stereo not given),"inconclusive: 29.1 µM [inhibitor, partial curve, poor fit]",
O=C1CN(C(=O)CSc2nc3ccccc3n2CCc2ccccc2)c2ccccc2N1,"inconclusive: 25.9 µM [inhibitor, single point]",
COC(=O)c1ccc(-c2sc3nc(N4CCOCC4)c4c(c3c2N)CCCC4)o1,"inconclusive: 18.4 µM [inhibitor, partial curve]",
O=C(COc1ccc2oc(-c3ccccc3)cc(=O)c2c1)NCc1ccco1,"inconclusive: 9.2 µM [activator, partial curve]",
CC1CN(C(=O)COC(=O)c2cccs2)CC(C)O1 (stereo not given),"inconclusive: 0.731 µM [activator, full curve, poor fit]",
CCOC(=O)CNC(=O)c1cnc(Nc2ccccc2OC)c2ccccc12,,inactive: 6.82%
CSc1ccccc1NC(=O)c1cc(-c2cccs2)on1,"inconclusive: 29.1 µM [activator, single point]",
O=C1ON=C(c2ccccc2)/C1=C\c1ccco1,"inconclusive: 25.9 µM [activator, partial curve, poor fit]",
CC(C)CC(=O)Nc1cccc(C(=O)Nc2ccccc2C(=O)O)c1,,inactive: -17.2%
CC(C)(C)c1cc(NCc2ccccn2)n2ncc(-c3ccc(Cl)cc3)c2n1,"inconclusive: 20.6 µM [inhibitor, single point]",
COc1ccc(CN(C(=O)CN2C(=O)COc3ccccc32)C2CCCC2)c(OC)c1,"inconclusive: 23.1 µM [inhibitor, single point]",
O=C(Cn1ncc2c1-c1ccccc1OC2)N1CCN(c2ccccn2)CC1,"inconclusive: 5.17 µM [inhibitor, partial curve, poor fit]",
CC(NC(=O)CCC(=O)NC(C)c1ccccc1)c1ccccc1 (stereo not given),,inactive: 0.179%
Cc1ccc(S(=O)(=O)N2CCCOC2CNC(=O)C(=O)NCCc2c[nH]c3ccccc23)cc1 (stereo not given),active: 23.1 µM,

SMILES,Potency,"activity change, negative = inhibition"
Cc1cccc(N2CCN(C(=O)Cn3cnc4c3c(=O)n(C)c(=O)n4C)CC2)c1C,active: 20.6 µM,
O=C(NNC(=O)c1ccccn1)c1ccc(OC(F)F)cc1,,inactive: -13.4%
CN1CCN(c2ccccc2NC(=O)c2sc3ccccc3c2Cl)CC1,"inconclusive: 23.1 µM [inhibitor, partial curve]",
O=C1OCCC/C1=C\c1ccc2c(c1)OCO2,,inactive: 4.35%
CCc1ccc(C(=O)Nc2ccc(C)c(NS(C)(=O)=O)c2)cc1,"inconclusive: 29.1 µM [inhibitor, single point]",
CCC(=O)C1CCCN(C(=O)CCc2nnc(-c3ccc4c(c3)OCO4)o2)C1 (stereo not given),"inconclusive: 18.3 µM [activator, single point]",
COc1ccccc1-c1ccc(SCc2ccccc2)nn1,"inconclusive: 16.4 µM [activator, partial curve]",
COc1cc(C2C(C#N)=C(N)N(c3sc4c(c3C#N)CCCC4)C3=C2C(=O)CC(C)(C)C3)cc(OC)c1OC (stereo not given),,inactive: 3.77%
CCn1c2ccccc2c2cc(NC(=O)CSc3nnc(C4CC4)n3Cc3ccco3)ccc21,"inconclusive: 13 µM [inhibitor, partial curve]",
Cc1ccc2c(cnn2C(=O)CCC(=O)N2CCCCC2)c1,,inactive: 20.6%
CCCOc1ccccc1C(=O)NCCCC(=O)O,"inconclusive: 1.3 µM [inhibitor, single point]",
COc1cccc(-c2c(NC(=O)c3ccco3)oc3ccc(Cl)cc3c2=O)c1,,inactive: 4.65%
N/C(=N\OC(=O)c1ccc(Cl)cc1)c1ccccn1,"inconclusive: 2.91 µM [activator, partial curve]",
CCN(Cc1cc(OC)c(OC)c(OC)c1)C(=S)Nc1cccc(SC)c1,"inconclusive: 20.6 µM [inhibitor, single point]",
Cc1ccccc1Cn1c(=O)n(C)c(=O)c2sccc21,"inconclusive: 29.1 µM [activator, single point]",
Cc1ccc(NC(=O)CCNS(=O)(=O)c2ccccc2)cc1S(=O)(=O)N1CCOCC1,"inconclusive: 4.61 µM [inhibitor, single point]",
O=C(Nc1cccnc1)NC1CCCCC1,"inconclusive: 23.1 µM [activator, single point]",
CCOC(=O)C1=C(C)N(c2ccccc2)C(=O)/C1=C\c1ccc(O)c(OC)c1,"inconclusive: 20.6 µM [inhibitor, single point]",
COc1ccc(Nc2nc(-c3ccccc3)cs2)cc1,"inconclusive: 10.3 µM [activator, partial curve]",
CCOC(=O)c1c(-c2ccc(OC)cc2)csc1NC(=O)COc1ccc2c(C)cc(=O)oc2c1,"inconclusive: 2.06 µM [inhibitor, partial curve]",
O=C(NC1CCCCC1)c1cc(-c2ccc(F)cc2)on1,"inconclusive: 2.06 µM [activator, full curve]",
Cc1cc(C)n(S(=O)(=O)c2cc(C(=O)O)c(Cl)cc2Cl)n1,,inactive: -1.35%
Cc1cc(C(=O)N(C)C)sc1-c1ccccc1,"inconclusive: 14.6 µM [activator, partial curve]",
CCOC(=O)N1CCC(N(CCN(C)C)C(=S)Nc2ccc(F)c(Cl)c2)CC1,"inconclusive: 29.1 µM [inhibitor, partial curve, poor fit]",

SMILES,Potency,"activity change, negative = inhibition"
O=C(/C=C/c1ccco1)N1CCN(S(=O)(=O)c2cccs2)CC1,,inactive: -3.25%
COc1cc2[nH]c(C(=O)N3CCC(Cc4ccccc4)CC3)cc2c(OC)c1OC,"inconclusive: 32.6 µM [inhibitor, single point]",
Cc1cccc(NC(=O)CNC(=O)CN2C(=O)NC3(CCCc4ccccc43)C2=O)c1C (stereo not given),,inactive: -9.25%
CCOC(=O)c1ccccc1NC(=O)/C=C/c1cc(OC)c(OC)c(OC)c1,"inconclusive: 23.1 µM [inhibitor, single point]",
CC(C)C(=O)NC(c1cccc([N+](=O)[O-])c1)c1ccc2cccnc2c1O (stereo not given),"inconclusive: 5.17 µM [inhibitor, single point]",
O=C(CSc1nnc(-c2ccco2)n1CC1CCCO1)N1CCCCC1 (stereo not given),,inactive: 12%
COc1ccc(Cl)cc1NC(=O)C1CCCO1 (stereo not given),,inactive: 8.15%
COc1ccc(N=c2cc(-c3ccc(OC)cc3)oc3ccccc23)cc1,active: 23.1 µM,
O=C(Nc1ccc(Cl)cn1)c1cccc(F)c1,"inconclusive: 18.4 µM [activator, partial curve]",
CCN(CC)CCNC(=O)c1cccc(NC(=O)C(=O)c2cc(Br)ccc2NC(C)=O)c1,,inactive: -0.137%
COc1cccc(C(=O)NC2CC3CCCC(C2)N3CC(=O)Nc2ccccc2C(F)(F)F)c1 (stereo not given),"inconclusive: 18.3 µM [inhibitor, single point]",
C=CCn1c(SCC#N)nc2ccccc2c1=O,"inconclusive: 0.184 µM [inhibitor, single point]",
COc1ccc(CC(=O)Nc2nc3ccccc3s2)cc1S(=O)(=O)N1CCOCC1,"inconclusive: 18.4 µM [inhibitor, partial curve, poor fit]",
COc1cc(/C=N/NS(=O)(=O)c2ccc(C)cc2)ccc1OCc1ccc(C(=O)O)cc1,"inconclusive: 1.03 µM [activator, partial curve]",
Cc1ccc(OCCNC(=O)C(C)SCC(=O)Nc2ccc(F)cc2)cc1 (stereo not given),"inconclusive: 8.2 µM [inhibitor, partial curve, poor fit]",
CCOC(=O)c1c(NC(NC(C)=O)C(Cl)(Cl)Cl)sc2c1CCCC2 (stereo not given),"inconclusive: 29.1 µM [inhibitor, single point]",
CCc1noc(C)c1C(=O)Nc1nc2ccc(OC)cc2s1,,inactive: 8.8%
COc1ccccc1N=Nc1c(C)noc1C,"inconclusive: 1.03 µM [inhibitor, single point]",
Cc1cc2cc(CNC(=O)c3ccc4c(c3)OCO4)ccc2n1C,"inconclusive: 23.1 µM [inhibitor, partial curve, poor fit]",
Cc1nnc(N/N=C/c2ccc(Br)cc2)n1N,"inconclusive: 10 µM [activator, partial curve]",
O=CN1CCN(c2ncnc3c2nnn3Cc2c(F)cccc2Cl)CC1,,inactive: 6.37%
CCC1CCCCN1CCCNC(=O)COc1cc(=O)n(C)c2ccccc12 (stereo not given),"inconclusive: 16.4 µM [activator, single point]",

# Random excerpt: 3 compounds from above.
SMILES,Potency,"activity change, negative = inhibition"
CCN(Cc1cc(OC)c(OC)c(OC)c1)C(=S)Nc1cccc(SC)c1,"inconclusive: 20.6 µM [inhibitor, single point]",
Cc1cccc(NC(=O)CNC(=O)CN2C(=O)NC3(CCCc4ccccc43)C2=O)c1C (stereo not given),,inactive: -9.25%
N/C(=N\OC(=O)c1ccc(Cl)cc1)c1ccccn1,"inconclusive: 2.91 µM [activator, partial curve]",

# Reformatted tab-delimited: entries from further up.
SMILES	Potency	activity change, negative = inhibition
Cc1cccc(NC(=O)CNC(=O)CN2C(=O)NC3(CCCc4ccccc43)C2=O)c1C (stereo not given)		inactive: -9.25%
CCC1CCCCN1CCCNC(=O)COc1cc(=O)n(C)c2ccccc12 (stereo not given)	inconclusive: 16.4 µM [activator, single point]	
